For seven molecules, binding results are on record in article PMC9378658.

Protein sequences, listed by entry. Tags and fused reporters are not part of them.
UniProt P25322: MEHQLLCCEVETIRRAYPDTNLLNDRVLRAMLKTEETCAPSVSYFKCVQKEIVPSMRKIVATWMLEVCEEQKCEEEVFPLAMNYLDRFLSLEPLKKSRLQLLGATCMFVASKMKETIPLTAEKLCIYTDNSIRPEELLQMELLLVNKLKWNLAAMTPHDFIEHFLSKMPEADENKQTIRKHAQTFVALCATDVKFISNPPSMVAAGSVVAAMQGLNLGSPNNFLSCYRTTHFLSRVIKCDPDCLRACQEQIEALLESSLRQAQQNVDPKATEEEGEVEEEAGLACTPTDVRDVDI
UniProt Q8R0K9: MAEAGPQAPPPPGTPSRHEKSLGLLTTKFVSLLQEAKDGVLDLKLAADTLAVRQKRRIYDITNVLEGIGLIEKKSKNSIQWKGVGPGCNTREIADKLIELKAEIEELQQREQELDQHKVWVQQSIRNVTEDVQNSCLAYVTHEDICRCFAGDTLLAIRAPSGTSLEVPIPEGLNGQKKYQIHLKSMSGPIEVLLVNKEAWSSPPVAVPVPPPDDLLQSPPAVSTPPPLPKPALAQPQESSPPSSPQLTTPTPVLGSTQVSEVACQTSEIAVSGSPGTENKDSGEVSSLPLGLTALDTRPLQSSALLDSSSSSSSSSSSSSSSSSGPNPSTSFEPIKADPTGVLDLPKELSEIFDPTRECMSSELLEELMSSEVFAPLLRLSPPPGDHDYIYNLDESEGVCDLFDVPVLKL
UniProt Q9R1E0: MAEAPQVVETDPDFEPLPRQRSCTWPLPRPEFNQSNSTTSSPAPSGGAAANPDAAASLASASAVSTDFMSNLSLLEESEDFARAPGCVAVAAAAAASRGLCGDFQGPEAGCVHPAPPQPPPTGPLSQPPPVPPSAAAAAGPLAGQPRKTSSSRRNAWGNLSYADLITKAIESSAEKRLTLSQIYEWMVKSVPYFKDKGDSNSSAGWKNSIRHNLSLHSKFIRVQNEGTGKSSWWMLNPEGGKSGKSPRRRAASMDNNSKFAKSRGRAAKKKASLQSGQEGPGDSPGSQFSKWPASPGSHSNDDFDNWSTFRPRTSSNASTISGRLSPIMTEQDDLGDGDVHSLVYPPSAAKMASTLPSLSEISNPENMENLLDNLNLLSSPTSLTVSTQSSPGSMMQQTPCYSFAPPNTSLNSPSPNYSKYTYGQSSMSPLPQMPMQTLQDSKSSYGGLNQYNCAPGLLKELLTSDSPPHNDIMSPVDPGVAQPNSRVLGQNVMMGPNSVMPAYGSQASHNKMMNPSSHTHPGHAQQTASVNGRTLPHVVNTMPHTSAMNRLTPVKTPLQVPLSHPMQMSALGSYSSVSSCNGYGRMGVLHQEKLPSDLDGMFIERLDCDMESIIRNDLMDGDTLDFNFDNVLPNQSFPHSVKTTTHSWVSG
UniProt P46414: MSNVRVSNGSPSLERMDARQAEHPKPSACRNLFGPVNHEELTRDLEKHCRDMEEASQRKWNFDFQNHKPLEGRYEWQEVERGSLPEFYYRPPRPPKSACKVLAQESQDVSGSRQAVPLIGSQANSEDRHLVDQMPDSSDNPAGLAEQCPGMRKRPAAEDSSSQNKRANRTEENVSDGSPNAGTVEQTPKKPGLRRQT
UniProt P61809: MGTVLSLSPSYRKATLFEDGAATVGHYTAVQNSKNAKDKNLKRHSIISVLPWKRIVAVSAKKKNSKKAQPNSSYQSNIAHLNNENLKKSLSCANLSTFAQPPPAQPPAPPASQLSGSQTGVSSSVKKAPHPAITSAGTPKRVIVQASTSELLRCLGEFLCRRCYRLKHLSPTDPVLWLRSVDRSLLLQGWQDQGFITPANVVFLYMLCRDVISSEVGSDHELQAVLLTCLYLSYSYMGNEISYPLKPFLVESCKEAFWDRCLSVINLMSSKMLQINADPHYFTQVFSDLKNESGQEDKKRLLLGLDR

Read-outs that look alike come from different tables or passages of the source. Results are given in words; binding and its absence hold for the method and conditions named. In cells and extracts the contact can be indirect. Some entries that bind do so weakly or less than the wild type.

What all share (experiment): co-IP; endogenous proteins; WM tissue extracts of Nx and Hx mice at P18 in RIPA buffer with 2% Triton-X-100 and 0.2% SDS; 270 µg aliquots incubated overnight with antibody and Agarose A; washed twice in RIPA; immunoblot for the expected co-precipitating protein
The target of experiment [1] is T1, Sirt2 (mouse (endogenous in subcortical white matter)) (UniProt Q8VDQ8).
T1 sequence: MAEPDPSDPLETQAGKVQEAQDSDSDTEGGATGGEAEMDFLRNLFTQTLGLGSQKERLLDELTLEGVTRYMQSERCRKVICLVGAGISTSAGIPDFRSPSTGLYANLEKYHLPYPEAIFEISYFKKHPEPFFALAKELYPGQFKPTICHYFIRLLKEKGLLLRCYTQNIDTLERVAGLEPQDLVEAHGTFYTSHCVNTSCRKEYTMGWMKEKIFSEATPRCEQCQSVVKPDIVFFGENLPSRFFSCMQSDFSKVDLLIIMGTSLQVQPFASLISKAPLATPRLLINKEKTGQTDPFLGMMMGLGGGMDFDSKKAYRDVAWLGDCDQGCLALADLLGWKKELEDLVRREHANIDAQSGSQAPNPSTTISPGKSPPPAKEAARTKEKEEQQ

In experiment [2] the target is T2, Cdk4 (mouse (endogenous in subcortical white matter)) (UniProt P30285).
T2 sequence: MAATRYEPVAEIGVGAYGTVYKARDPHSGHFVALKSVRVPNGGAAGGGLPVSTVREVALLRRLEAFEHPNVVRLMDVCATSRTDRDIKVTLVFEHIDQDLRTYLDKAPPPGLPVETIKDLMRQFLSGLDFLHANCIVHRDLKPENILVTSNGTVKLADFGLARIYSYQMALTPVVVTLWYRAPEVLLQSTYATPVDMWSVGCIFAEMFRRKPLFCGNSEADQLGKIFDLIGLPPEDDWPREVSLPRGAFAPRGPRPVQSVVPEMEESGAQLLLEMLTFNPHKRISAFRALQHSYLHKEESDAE

Experiment [3] deals with T3, p107 (mouse (endogenous in subcortical white matter)) (UniProt Q64701).
T3 sequence: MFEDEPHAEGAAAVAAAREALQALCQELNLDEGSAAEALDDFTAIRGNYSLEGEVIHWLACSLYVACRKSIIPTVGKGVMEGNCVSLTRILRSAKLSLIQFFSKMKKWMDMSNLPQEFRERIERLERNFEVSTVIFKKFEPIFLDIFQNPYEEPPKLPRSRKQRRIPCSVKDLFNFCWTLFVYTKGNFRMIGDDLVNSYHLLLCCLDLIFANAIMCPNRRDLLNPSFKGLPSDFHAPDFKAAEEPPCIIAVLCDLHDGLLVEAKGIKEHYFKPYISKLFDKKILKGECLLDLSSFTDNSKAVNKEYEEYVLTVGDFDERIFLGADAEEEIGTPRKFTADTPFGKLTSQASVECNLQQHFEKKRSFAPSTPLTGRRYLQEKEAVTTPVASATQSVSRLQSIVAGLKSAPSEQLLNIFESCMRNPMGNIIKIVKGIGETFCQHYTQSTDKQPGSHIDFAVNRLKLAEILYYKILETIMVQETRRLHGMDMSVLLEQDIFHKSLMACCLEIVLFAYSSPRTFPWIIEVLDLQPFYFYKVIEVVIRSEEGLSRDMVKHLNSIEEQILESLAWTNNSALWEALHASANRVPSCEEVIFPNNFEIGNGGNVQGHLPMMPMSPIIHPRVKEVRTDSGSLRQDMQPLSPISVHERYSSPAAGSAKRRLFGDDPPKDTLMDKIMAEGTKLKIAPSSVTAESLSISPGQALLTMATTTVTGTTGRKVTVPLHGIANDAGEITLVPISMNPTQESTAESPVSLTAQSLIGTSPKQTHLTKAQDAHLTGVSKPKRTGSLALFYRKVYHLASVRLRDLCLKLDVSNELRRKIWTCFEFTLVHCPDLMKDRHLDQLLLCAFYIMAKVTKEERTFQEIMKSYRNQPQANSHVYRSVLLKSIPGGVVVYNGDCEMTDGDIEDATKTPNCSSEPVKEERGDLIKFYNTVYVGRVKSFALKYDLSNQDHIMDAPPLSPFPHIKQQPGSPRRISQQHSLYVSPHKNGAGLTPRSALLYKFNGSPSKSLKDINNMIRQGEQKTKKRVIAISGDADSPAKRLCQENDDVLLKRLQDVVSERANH

The target of experiment [4] is Cdk5 (mouse (endogenous in subcortical white matter)) (UniProt P49615).
Experiment [5] addresses T1, Sirt2 (mouse (endogenous in subcortical white matter)). This is another data set of the same source.

In the case of Cdk5 (from UniProt P49615 1-292), the binding result in experiment [1] is on record as “binds”.
As for CyclinD1 (from UniProt P25322 1-295), in experiment [2], the binding entry is reported as “binds”.
For the molecule E2F4 (from UniProt Q8R0K9 1-410), in experiment [3], the binding entry is listed as “binds”.
With FoxO1 (from UniProt Q9R1E0 1-652), in experiment [1], the binding entry is listed as “binds”.
Still for that read-out and setting: the same measure for p27^Kip1 (from UniProt P46414 1-197): “binds”.
Turning to p35 (from UniProt P61809 1-307), the binding result in experiment [4] is listed as “binds”.

B1: p21^Cip1 (protein, UniProt P39689 1-159)
chain: MSNPGDVRPVPHRSKVCRCLFGPVDSEQLRRDCDALMAGCLQEARERWNFDFVTETPLEGNFVWERVRSLGLPKVYLSPGSRSRDDLGGDKRPSTSSALLQGPAPEDHVALSLSCTLVSERPEDSPGGPGTSQGRKRRQTSLTDFYHSKRRLVFCKRKP
Consider B1, for which the binding result in experiment [5] is “binds”.
